Experimental findings from article doi:10.1101/828426 are described below.

The chains behind the UniProt entries cited, without tags or fusion partners.
UniProt Q7TPH6: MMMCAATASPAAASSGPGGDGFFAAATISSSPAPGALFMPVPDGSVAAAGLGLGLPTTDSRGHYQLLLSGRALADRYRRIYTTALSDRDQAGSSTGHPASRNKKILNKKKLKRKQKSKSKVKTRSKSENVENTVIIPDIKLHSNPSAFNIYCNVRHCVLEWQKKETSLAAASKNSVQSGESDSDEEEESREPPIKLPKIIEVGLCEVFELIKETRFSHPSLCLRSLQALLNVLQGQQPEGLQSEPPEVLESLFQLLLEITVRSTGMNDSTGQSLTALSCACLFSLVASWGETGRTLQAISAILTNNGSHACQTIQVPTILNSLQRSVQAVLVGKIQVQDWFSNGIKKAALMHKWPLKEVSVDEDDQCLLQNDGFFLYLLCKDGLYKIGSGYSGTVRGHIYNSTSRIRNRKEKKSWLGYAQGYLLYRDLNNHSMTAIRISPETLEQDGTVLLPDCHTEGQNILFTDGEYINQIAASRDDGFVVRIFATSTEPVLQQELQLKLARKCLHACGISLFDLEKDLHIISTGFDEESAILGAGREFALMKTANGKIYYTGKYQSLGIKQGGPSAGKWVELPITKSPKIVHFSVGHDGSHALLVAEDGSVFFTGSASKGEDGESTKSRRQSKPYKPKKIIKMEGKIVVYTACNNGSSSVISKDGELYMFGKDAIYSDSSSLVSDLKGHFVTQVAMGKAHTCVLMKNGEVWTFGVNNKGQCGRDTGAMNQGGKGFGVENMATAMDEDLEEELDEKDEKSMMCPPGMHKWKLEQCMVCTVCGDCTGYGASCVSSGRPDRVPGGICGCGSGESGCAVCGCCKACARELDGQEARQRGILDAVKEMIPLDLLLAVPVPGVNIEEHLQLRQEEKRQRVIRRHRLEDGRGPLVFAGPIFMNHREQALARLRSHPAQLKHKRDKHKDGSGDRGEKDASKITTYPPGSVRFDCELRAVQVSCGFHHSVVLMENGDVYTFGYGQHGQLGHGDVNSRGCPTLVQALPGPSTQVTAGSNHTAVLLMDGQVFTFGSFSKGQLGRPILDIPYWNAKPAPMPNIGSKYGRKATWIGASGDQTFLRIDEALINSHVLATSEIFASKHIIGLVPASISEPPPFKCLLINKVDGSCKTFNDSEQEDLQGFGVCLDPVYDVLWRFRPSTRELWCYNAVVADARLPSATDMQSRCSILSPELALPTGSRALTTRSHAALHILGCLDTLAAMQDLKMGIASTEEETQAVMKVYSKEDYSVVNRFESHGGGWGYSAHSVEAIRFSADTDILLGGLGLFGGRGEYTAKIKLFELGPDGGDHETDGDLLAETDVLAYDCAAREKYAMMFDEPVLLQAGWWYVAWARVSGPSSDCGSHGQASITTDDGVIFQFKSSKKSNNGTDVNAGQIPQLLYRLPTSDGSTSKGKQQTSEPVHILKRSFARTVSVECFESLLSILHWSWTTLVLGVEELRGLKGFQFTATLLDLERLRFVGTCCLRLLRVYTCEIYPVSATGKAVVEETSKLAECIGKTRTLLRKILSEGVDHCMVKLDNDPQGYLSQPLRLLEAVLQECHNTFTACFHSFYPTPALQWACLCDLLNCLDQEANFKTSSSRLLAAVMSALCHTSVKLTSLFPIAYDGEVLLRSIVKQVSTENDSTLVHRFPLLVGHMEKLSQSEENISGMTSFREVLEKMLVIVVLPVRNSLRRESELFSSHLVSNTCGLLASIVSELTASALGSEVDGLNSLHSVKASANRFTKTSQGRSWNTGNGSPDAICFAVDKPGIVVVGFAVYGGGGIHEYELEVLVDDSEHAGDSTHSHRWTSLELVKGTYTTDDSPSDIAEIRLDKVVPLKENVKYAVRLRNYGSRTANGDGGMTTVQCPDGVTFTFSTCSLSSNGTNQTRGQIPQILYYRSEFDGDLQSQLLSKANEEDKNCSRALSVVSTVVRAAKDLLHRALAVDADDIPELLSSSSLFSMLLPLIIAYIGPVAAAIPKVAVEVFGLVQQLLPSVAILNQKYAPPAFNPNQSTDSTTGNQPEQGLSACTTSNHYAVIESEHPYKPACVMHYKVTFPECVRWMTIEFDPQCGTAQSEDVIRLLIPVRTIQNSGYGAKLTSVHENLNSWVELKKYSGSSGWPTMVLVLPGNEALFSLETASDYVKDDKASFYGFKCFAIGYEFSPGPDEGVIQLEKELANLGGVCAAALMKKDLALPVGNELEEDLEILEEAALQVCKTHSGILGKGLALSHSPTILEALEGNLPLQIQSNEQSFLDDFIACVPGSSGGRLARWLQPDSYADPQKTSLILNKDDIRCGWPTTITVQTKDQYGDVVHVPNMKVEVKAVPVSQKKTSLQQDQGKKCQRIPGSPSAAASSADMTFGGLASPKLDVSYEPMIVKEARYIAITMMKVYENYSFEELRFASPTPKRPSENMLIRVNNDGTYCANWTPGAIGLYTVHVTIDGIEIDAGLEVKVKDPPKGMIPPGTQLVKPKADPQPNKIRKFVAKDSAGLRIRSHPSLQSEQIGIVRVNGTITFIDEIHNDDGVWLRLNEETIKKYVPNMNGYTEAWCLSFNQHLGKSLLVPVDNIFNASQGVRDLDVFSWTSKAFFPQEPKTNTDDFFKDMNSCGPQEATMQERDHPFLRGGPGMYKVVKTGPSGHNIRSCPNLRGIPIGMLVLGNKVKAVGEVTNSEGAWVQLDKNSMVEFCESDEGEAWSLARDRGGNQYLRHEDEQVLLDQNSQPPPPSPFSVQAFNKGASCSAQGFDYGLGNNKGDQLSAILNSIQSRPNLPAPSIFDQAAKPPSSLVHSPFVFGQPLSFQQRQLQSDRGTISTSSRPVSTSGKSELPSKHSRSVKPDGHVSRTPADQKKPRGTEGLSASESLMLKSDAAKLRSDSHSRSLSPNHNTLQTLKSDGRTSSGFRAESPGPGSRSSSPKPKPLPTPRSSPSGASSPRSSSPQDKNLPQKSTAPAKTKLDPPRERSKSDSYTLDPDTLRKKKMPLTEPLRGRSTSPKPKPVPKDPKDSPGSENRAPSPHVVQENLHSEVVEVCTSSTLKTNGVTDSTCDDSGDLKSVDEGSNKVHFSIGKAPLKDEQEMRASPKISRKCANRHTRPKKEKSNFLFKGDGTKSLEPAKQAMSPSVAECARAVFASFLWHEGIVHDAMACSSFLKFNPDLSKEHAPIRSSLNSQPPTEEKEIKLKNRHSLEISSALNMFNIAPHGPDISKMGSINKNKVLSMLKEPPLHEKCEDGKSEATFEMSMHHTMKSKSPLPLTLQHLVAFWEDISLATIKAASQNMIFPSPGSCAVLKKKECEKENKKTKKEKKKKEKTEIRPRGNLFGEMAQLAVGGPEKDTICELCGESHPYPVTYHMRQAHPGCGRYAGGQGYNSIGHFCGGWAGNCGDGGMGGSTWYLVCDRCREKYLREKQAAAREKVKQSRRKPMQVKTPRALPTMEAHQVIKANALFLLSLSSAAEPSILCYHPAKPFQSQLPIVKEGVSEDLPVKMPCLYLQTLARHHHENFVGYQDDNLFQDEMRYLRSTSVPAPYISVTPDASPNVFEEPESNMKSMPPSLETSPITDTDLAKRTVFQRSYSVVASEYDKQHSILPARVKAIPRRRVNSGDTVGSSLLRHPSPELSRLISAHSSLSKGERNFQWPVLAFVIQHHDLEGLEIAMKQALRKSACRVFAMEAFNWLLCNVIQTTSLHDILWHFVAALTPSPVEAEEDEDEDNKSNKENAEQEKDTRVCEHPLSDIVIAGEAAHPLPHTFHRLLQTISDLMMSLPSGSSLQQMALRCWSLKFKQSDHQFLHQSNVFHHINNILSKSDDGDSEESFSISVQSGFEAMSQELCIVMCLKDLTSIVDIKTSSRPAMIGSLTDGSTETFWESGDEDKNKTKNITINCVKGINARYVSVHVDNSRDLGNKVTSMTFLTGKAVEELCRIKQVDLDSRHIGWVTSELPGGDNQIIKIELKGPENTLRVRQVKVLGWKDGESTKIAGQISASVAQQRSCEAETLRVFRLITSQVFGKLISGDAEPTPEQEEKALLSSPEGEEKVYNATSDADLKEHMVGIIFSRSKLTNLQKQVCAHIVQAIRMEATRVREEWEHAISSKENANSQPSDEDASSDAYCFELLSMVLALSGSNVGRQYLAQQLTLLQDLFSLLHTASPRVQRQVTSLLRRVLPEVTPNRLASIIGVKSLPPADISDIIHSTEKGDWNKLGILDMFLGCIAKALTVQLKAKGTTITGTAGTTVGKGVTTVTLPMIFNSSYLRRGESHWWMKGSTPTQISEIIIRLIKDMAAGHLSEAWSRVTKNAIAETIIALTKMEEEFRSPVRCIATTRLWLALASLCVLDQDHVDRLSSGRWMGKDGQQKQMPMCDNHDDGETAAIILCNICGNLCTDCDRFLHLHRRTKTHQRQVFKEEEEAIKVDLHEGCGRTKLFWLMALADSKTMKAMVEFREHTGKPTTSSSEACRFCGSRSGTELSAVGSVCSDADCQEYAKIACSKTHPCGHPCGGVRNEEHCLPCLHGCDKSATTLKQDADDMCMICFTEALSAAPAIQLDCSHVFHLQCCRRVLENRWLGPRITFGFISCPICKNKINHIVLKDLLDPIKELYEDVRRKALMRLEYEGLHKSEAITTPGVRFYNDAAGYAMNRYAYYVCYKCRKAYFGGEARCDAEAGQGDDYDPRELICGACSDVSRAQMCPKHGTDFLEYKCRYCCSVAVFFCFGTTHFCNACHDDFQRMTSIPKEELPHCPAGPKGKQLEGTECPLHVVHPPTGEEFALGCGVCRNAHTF

These are yes or no findings as the source states them, for the method shown. Binding seen in cells or lysates may run through a third protein. These calls come from enrichment with a bait or labelling near it, and not all partners need be listed. For some of these results: No binding means not detected with the bait. Tags and fused reporters may be left off the sequences shown.

For one experiment, the target named is T1, ECad-Fc (murine) (UniProt P09803).
T1 sequence: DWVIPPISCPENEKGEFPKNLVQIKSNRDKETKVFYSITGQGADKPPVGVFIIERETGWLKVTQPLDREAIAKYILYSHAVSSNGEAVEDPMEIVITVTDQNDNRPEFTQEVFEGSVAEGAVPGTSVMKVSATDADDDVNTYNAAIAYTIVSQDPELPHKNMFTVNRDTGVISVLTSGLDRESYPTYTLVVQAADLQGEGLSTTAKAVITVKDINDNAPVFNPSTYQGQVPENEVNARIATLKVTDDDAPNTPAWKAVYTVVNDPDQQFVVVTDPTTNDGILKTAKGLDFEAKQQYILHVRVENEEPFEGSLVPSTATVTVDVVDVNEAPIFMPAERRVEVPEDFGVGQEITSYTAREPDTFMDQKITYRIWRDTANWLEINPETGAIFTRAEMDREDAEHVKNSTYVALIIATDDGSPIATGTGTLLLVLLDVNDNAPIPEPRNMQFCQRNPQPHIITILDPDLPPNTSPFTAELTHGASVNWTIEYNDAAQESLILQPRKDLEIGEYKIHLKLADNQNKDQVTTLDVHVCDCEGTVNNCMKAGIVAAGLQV
The experiment in a line: affinity purification with mass spectrometry.

The target of a further experiment is T2, NCad^W161A-Fc (murine) (UniProt P15116).
T2 sequence: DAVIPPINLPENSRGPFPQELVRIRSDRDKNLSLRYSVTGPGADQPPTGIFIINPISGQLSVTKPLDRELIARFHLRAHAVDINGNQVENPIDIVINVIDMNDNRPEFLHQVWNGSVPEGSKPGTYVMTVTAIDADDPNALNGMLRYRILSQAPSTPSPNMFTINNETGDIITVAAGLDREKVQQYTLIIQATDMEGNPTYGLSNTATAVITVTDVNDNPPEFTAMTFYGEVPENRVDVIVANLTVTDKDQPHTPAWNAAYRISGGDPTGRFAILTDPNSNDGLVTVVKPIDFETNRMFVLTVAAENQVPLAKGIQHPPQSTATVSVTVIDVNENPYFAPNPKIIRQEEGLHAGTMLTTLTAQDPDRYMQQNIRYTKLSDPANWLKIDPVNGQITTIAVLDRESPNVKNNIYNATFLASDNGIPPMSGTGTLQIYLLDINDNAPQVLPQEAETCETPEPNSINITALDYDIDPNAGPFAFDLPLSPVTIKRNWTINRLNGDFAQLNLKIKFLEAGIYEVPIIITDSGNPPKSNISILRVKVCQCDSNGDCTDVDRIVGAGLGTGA
In words: affinity purification with mass spectrometry.

As for “MycBP2 (mouse embryonic brain) (from UniProt Q7TPH6 1-4749)”, the binding result in the experiment with ECad-Fc (murine) is recorded as “no binding”; in the experiment with NCad^W161A-Fc (murine) it was “binds”.

B1: Fbxo45 (mouse embryonic brain) (protein, UniProt Q8K3B1 1-286)
chain: MAAPGPGAGAASGGASGGGAGAGGGASAGSGSSGVGGRLPSRVLELVFSYLELSELRSCALVCKHWYRCLHGDENSEVWRSLCARSLAEEALRTDILCNLPSYKAKVRAFQHAFSTNDCSRNVYIKKNGFTLHRNPIAQSTDGARTKIGFSEGRHAWEVWWEGPLGTVAVIGIATKRAPMQCQGYVALLGSDDQSWGWNLVDNNLLHNGEVNGSFPQCNNAPKYQIGERIRVILDMEDKTLAFERGYEFLGVAFRGLPKACLYPAVSAVYGNTEVTLVYLGKPLDG
As for B1, the binding result with ECad-Fc (murine) was “no binding”; in the experiment with NCad^W161A-Fc (murine) it was “binds”.
